# Test results from article PMC11547093, “Novel Phenoxyalkanoic Acid Derivatives as Free Fatty Acid Receptor 4 Agonists for Treating Type 2 Diabetes Mellitus” (International Journal of Molecular Sciences, 2024).
# Tests used:
# [1] = pharmacokinetic study in ICR mice; details: male, mouse, in vivo, po, 10 mg/kg
# normal ICR mice = test: oral glucose tolerance test in normal ICR mice; details: 20 mg/kg by gavage 30 min before glucose 2 g/kg, AUC 0-120 min
# DIO mice = test: anti-hyperglycemic effects (OGTT, insulin) in diet-induced obese (DIO) mice; format: in vivo, C57BL/6 mice; details: 30 mg/kg oral 30 min before glucose 2 g/kg, AUC -30 to 120 min
# Description: During the experimental period, plasma insulin levels were measured 30 min after glucose administration using an insulin ELISA Kit.
# Plasma insulin levels were measured using a mouse insulin RIA kit 30 min after oral glucose loading (Beijing North Institute of Biological Technology, Beijing, China).
compound,measurement,setting,value
"Cc1ccc(-c2ccc(F)cc2COc2ccc(CCC(=O)O)cc2)cc1 [TUG-891, reference compound]",AUC,[1],2400 ± 250 ng·h/mL
same,Cmax,[1],1240 ± 170 ng/mL
same,half-life,[1],44.4 ± 17.4 min
same,reduction of blood glucose AUC versus vehicle-treated group,normal ICR mice,22.4%
same,reduction of blood glucose AUC versus vehicle-treated group,DIO mice,16.5%
